Data published in article PMC12063666.
These are yes or no findings as the source states them, for the method shown. Some binding calls cover weakened binding; strength is not graded here.

T1: cognate myosin heavy chain fragment (comprising residues 709 to 840) (UniProt P05661)
T1 sequence: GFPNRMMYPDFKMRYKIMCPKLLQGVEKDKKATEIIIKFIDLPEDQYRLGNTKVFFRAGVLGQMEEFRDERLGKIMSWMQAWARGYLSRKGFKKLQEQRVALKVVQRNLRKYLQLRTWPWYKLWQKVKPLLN


Molecular target: T1, cognate myosin heavy chain fragment (comprising residues 709 to 840)
Assay: co-expression and co-purification; three proteins coexpressed in E. coli as His14-ScSUMO and His14-NEDD8 fusions, captured on Ni-chelate beads, eluted by tag cleavage with Ulp1 and NEDP1

binding | Binder
binds | Mlc2 (myosin light chain 2) (protein, UniProt P18432 1-222) MADEKKKVKKKKTKEEGGTSETASEAASEAATPAPAATPAPAASATGSKRASGGSRGSRKSKRAGSSVFSVFSQKQIAEFKEAFQLMDADKDGIIGKNDLRAAFDSVGKIANDKELDAMLGEASGPINFTQLLTLFANRMATSGANDEDEVVIAAFKTFDNDGLIDGDKFREMLMNFGDKFTMKEVDDAYDQMVIDDKNQIDTAALIEMLTGKGEEEEEEAA
binds | Mlc1 (myosin light chain 1) (protein, UniProt P06742 1-155) MADVPKREVENVEFVFEVMGSPGEGIDAVDLGDALRALNLNPTLALIEKLGGTKKRNEKKIKLDEFLPIYSQVKKEKEQGCYEDFIECLKLYDKEENGTMLLAELQHALLALGESLDDEQVETLFADCMDPEDDEGFIPYSQFVQRLMSDPVVFD
